{"source": "PubChem BioAssay AID1259308 (NCATS, 2017)", "screen": "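Candidate targets for better recombinant protein yield in mammalian cells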 (primary screen)", "cell system": "human HEK293 embryonic kidney cells stably expressing firefly luciferase (HEK-CMV-Luc2-Hygro)", "knock-down reagent": "single siRNA against human genes, 0.8 pmol siRNA per well", "duration": "72 h", "measurement": "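Reporter luminescence and viable-cell signal on separate replicate plates, given as percent of non-targeting control and median/MAD z-scores, plus per-cell luciferase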", "scale": "total luciferase, z-score: higher = more reporter protein produced", "hit rule": "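An siRNA counts as active if its total luciferase robust z-score exceeds 3; genes with two or more such siRNAs out of three were retested with fresh siRNAs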", "calls": "active = raised luciferase; inactive = no rise", "note": "Here is one part, drawn at random, of about 59,000 reagents tested. About 1,510 of all reagents (2.6%) were called active. 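Calls use total luciferase alone and ignore viability, so some active siRNAs may act by altering cell number.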 A number with no mark means an inactive call. Reagents against one gene are numbered here. Further read-outs or replicates are left out here. No sequences are given here."}
{"gene knocked down":"RAB23 (RAB23, member RAS oncogene family)","reagent":1,"total luciferase, z-score":-0.247}
{"gene knocked down":"RAB23 (RAB23, member RAS oncogene family)","reagent":2,"total luciferase, z-score":-1.2}
{"gene knocked down":"RAB23 (RAB23, member RAS oncogene family)","reagent":3,"total luciferase, z-score":0.908}
{"gene knocked down":"ZNF780A (zinc finger protein 780A)","reagent":1,"total luciferase, z-score":-0.797}
{"gene knocked down":"ZNF780A (zinc finger protein 780A)","reagent":2,"total luciferase, z-score":0.277}
{"gene knocked down":"ZNF780A (zinc finger protein 780A)","reagent":3,"total luciferase, z-score":-1.2}
{"gene knocked down":"WDR17 (WD repeat domain 17)","reagent":1,"total luciferase, z-score":-0.433}
{"gene knocked down":"WDR17 (WD repeat domain 17)","reagent":2,"total luciferase, z-score":1.2}
{"gene knocked down":"WDR17 (WD repeat domain 17)","reagent":3,"total luciferase, z-score":-0.762}
{"gene knocked down":"POC1A (POC1 centriolar protein A)","reagent":1,"total luciferase, z-score":"3.31 (active)"}
{"gene knocked down":"POC1A (POC1 centriolar protein A)","reagent":2,"total luciferase, z-score":0.823}
{"gene knocked down":"POC1A (POC1 centriolar protein A)","reagent":3,"total luciferase, z-score":-0.553}
{"gene knocked down":"PPM1M (protein phosphatase, Mg2+/Mn2+ dependent 1M)","reagent":1,"total luciferase, z-score":0.975}
{"gene knocked down":"PPM1M (protein phosphatase, Mg2+/Mn2+ dependent 1M)","reagent":2,"total luciferase, z-score":0.757}
{"gene knocked down":"PPM1M (protein phosphatase, Mg2+/Mn2+ dependent 1M)","reagent":3,"total luciferase, z-score":-0.543}
{"gene knocked down":"CSDE1 (cold shock domain containing E1)","reagent":1,"total luciferase, z-score":0}
{"gene knocked down":"CSDE1 (cold shock domain containing E1)","reagent":2,"total luciferase, z-score":-1.02}
{"gene knocked down":"CSDE1 (cold shock domain containing E1)","reagent":3,"total luciferase, z-score":"3.41 (active)"}
{"gene knocked down":"SARS1 (seryl-tRNA synthetase 1)","reagent":1,"total luciferase, z-score":0.46}
{"gene knocked down":"SARS1 (seryl-tRNA synthetase 1)","reagent":2,"total luciferase, z-score":0.51}
{"gene knocked down":"SARS1 (seryl-tRNA synthetase 1)","reagent":3,"total luciferase, z-score":-1.21}
{"gene knocked down":"MAP3K15 (mitogen-activated protein kinase kinase kinase 15)","reagent":1,"total luciferase, z-score":-1.4}
{"gene knocked down":"MAP3K15 (mitogen-activated protein kinase kinase kinase 15)","reagent":2,"total luciferase, z-score":-0.338}
{"gene knocked down":"MAP3K15 (mitogen-activated protein kinase kinase kinase 15)","reagent":3,"total luciferase, z-score":-0.129}
{"gene knocked down":"B9D1 (B9 domain containing 1)","reagent":1,"total luciferase, z-score":-0.748}
{"gene knocked down":"B9D1 (B9 domain containing 1)","reagent":2,"total luciferase, z-score":-0.95}
{"gene knocked down":"B9D1 (B9 domain containing 1)","reagent":3,"total luciferase, z-score":-1.13}
{"gene knocked down":"OR51Q1 (olfactory receptor family 51 subfamily Q member 1)","reagent":1,"total luciferase, z-score":-0.702}
{"gene knocked down":"OR51Q1 (olfactory receptor family 51 subfamily Q member 1)","reagent":2,"total luciferase, z-score":-0.25}
{"gene knocked down":"OR51Q1 (olfactory receptor family 51 subfamily Q member 1)","reagent":3,"total luciferase, z-score":-0.749}
{"gene knocked down":"SEC11A (SEC11 homolog A, signal peptidase complex subunit)","reagent":1,"total luciferase, z-score":-0.707}
{"gene knocked down":"SEC11A (SEC11 homolog A, signal peptidase complex subunit)","reagent":2,"total luciferase, z-score":-1.62}
{"gene knocked down":"SEC11A (SEC11 homolog A, signal peptidase complex subunit)","reagent":3,"total luciferase, z-score":-0.477}

Reformatted: results already given.
gene knocked down,reagent,"total luciferase, z-score"
CSDE1 (cold shock domain containing E1),1,0
CSDE1 (cold shock domain containing E1),2,-1.02
